Assay results reported in publication PMC5128810.
These are yes or no findings as the source states them, for the method shown. Binding seen in cells or lysates may run through a third protein. Some binding calls cover weakened binding; strength is not graded here. Sequences can lack the tags named with a protein.

The chains behind the UniProt entries cited, without tags or fusion partners.
UniProt P06537: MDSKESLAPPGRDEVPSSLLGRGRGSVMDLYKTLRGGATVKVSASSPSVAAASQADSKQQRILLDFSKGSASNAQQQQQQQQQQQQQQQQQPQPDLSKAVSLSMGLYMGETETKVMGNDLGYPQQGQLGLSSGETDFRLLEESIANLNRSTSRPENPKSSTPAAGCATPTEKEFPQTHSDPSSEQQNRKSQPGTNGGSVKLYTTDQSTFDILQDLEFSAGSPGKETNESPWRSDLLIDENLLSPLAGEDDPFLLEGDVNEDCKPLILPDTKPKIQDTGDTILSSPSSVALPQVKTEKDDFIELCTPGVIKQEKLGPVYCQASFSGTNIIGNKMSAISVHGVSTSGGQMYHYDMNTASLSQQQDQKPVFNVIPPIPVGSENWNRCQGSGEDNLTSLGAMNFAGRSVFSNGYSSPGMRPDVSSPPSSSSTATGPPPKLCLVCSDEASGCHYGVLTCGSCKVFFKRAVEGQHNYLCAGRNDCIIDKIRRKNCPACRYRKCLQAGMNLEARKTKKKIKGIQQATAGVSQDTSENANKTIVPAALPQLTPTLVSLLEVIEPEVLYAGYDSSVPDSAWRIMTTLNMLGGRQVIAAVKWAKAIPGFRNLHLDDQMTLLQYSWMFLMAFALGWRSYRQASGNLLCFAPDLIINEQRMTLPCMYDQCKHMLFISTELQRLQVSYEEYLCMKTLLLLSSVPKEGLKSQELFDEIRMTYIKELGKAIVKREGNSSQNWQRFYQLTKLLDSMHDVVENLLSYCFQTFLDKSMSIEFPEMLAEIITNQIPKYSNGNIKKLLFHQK

Biological target: glucocorticoid receptor (mouse (endogenous in mouse MSCs)) (UniProt P06537)
Assay: co-IP; endogenous proteins from mouse MSCs at day 0, 3 and 5 of osteogenic induction with 10^-7 M dexamethasone; about 350 ug pre-cleared lysate incubated with total GR antibody (D6H2L) or HDAC6 antibody (ab12173) overnight at 4 °C, Protein A/G beads, western blot

B1: Histone Deacetylase 6 (protein, UniProt Q9Z2V5 1-1149)
chain: MTSTGQDSSTRQRKSRHNPQSPLQESSATLKRGGKKCAVPHSSPNLAEVKKKGKMKKLSQPAEEDLVVGLQGLDLNPETRVPVGTGLVFDEQLNDFHCLWDDSFPESPERLHAIREQLILEGLLGRCVSFQARFAEKEELMLVHSLEYIDLMETTQYMNEGELRVLAETYDSVYLHPNSYSCACLATGSVLRLVDALMGAEIRNGMAVIRPPGHHAQHNLMDGYCMFNHLAVAARYAQKKHRIQRVLIVDWDVHHGQGTQFIFDQDPSVLYFSIHRYEHGRFWPHLKASNWSTIGFGQGQGYTINVPWNQTGMRDADYIAAFLHILLPVASEFQPQLVLVAAGFDALHGDPKGEMAATPAGFAHLTHLLMGLAGGKLILSLEGGYNLRALAKGVSASLHTLLGDPCPMLESCVVPCASAQTSIYCTLEALEPFWEVLERSVETQEEDEVEEAVLEEEEEEGGWEATALPMDTWPLLQNRTGLVYDEKMMSHCNLWDNHHPETPQRILRIMCHLEEVGLAARCLILPARPALDSELLTCHSAEYVEHLRTTEKMKTRDLHREGANFDSIYICPSTFACAKLATGAACRLVEAVLSGEVLNGIAVVRPPGHHAEPNAACGFCFFNSVAVAARHAQIIAGRALRILIVDWDVHHGNGTQHIFEDDPSVLYVSLHRYDRGTFFPMGDEGASSQVGRDAGIGFTVNVPWNGPRMGDADYLAAWHRLVLPIAYEFNPELVLISAGFDAAQGDPLGGCQVTPEGYAHLTHLLMGLAGGRIILILEGGYNLASISESMAACTHSLLGDPPPQLTLLRPPQSGALVSISEVIQVHRKYWRSLRLMKMEDKEECSSSRLVIKKLPPTASPVSAKEMTTPKGKVPEESVRKTIAALPGKESTLGQAKSKMAKAVLAQGQSSEQAAKGTTLDLATSKETVGGATTDLWASAAAPENFPNQTTSVEALGETEPTPPASHTNKQTTGASPLQGVTAQQSLQLGVLSTLELSREAEEAHDSEEGLLGEAAGGQDMNSLMLTQGFGDFNTQDVFYAVTPLSWCPHLMAVCPIPAAGLDVSQPCKTCGTVQENWVCLTCYQVYCSRYVNAHMVCHHEASEHPLVLSCVDLSTWCYVCQAYVHHEDLQDVKNAAHQNKFGEDMPHSH
- binding: binds
